Measurements published in patent US20040138301A1, “Chemical uncouplers for the treatment of obesity” (priority 2002, published 2004).
At least one read-out could not be matched to a standard name with certainty.

System: HEP-G2 cells
Conditions: maximal stimulation relative to FCCP
Description: Assay (I): Glucose utilisation in a human hepatocytes cell line (HEP-G2 cells)
The assay measures indirectly the activity of the respiratory chain in HEP-G2 cells by using D-(3-^3H(N))-glucose. The ^3H-proton will first be released during the metabolism of glucose where it will be incorporated into water. The water is thereafter separated from the D-(3-^3H(N))-glucose by evaporation. Finally, the radioactivity in the water is determined using a Topcounter. […]
The next day the compounds to be tested are diluted in DMSO (Sigma, Missouri, USA) to 100 times final concentration. […] One ml scintillation liquid (Packard Microscient, PerkinElmer Life Sciences Inc., Boston, USA) is added to all the samples and the radioactivity is determined using a Topcounter (Packard, PerkinElmer Life Sciences Inc., Boston, USA). Non-specific activity is determined by evaporating 200 μl of the dilution medium containing the D-(3-^3H(N))-glucose into 300 μl sterile water, and total radioactivity is determined by counting 5 μl assay medium with 10 μCi/ml D-(3-^3H(N))-glucose.
The cpm (counts per minute) representing the non-specific radioactivity in the D-(3-^3H(N))-glucose is subtracted from all incubated values. […] The maximal stimulation caused by the test compounds is calculated in percentage of maximal stimulation caused by either DNP or FCCP. […]

SMILES: O=C(Nc1ccc([N+](=O)[O-])cc1Cl)c1cccc(-c2ccccc2)c1O [Example 44, 2-Hydroxy-Biphenyl-3-Carboxylic Acid (2-Chloro-4-Nitro-Phenyl)-Amide]
- HEP-G2 Emax (% of FCCP): 95 % of FCCP
